Results deposited as PubChem BioAssay AID652272 (Drosophila RNAi Screening Center, 2013)

- Test: 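Genome-wide knock-down search for components of Hedgehog signalling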 (primary screen)
- Cell system: Drosophila clone 8 (Cl8) cells
- Reagent: long dsRNA against Drosophila genes
- Measured: 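Plate reader light from a firefly reporter under a ptc promoter fragment that responds to Hedgehog, with Renilla light as transfection reference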
- Direction: firefly Hh reporter signal: higher = more ptc reporter light; Renilla reference signal: higher = more Renilla control light
- Call rule: 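Hit when the z-score averaged over two replicates is under -2 or over +3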
- Calls: active = hit: reporter lowered or raised; inactive = not a hit
In all, the deposit lists about 21,000 reagents; shown is an unselected part of those that have a named target and a result. Of all reagents, 503 (2.4%) were called active. 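Raw plate light values, not normalised; calls rest on replicate z-scores that were not deposited; hits include reporter decreases as well as increases.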 Names joined by + are all predicted targets of the reagent. The record does not give: the amount of reagent, the time to read-out.

target gene	DRSC id	firefly Hh reporter signal, replicate 1	firefly Hh reporter signal, replicate 2	firefly Hh reporter signal, replicate 3	Renilla reference signal, replicate 1	Renilla reference signal, replicate 2	call
S1P (GeneID 40399)	DRSC11810	1.47e5	1.53e5		5709	4273	inactive
CG30325 (GeneID 246541)	DRSC05685	1.37e5	3.20e5		3809	12224	inactive
CG14435 (GeneID 31628)	DRSC17928	89659	2.63e5		3403	9437	inactive
CG17380 (GeneID 42766)	DRSC15230	6.37e5	80839		35299	2720	inactive
Nepl13 (GeneID 42699)	DRSC15632	4.86e5	69283		24533	2333	inactive
CG14218 (GeneID 32949)	DRSC19575	1.66e5	6.85e5	3.51e5	5882	4881	inactive
RpL37A (GeneID 44783)	DRSC02899	49680	23948		2299	3891	active
CG14309 (GeneID 42212)	DRSC14788	6.09e5	1.21e5		30419	3132	inactive
N (GeneID 31293)	DRSC18685	1.18e5	2.64e5		4201	9493	inactive
lectin-37Da (GeneID 3346222)	DRSC03278	1.74e5	4.60e5	77197	4209	26772	inactive
CG3651 (GeneID 35440)	DRSC03730	54966	83064		1509	6864	inactive
LTV1 (GeneID 36146)	DRSC05951	88928	56336		3766	2345	inactive
CG17237 (GeneID 33411)	DRSC00491	1.20e5	1.33e5		2922	3043	inactive
br (GeneID 44505)	DRSC17691	4.66e5	2.09e5		24064	4129	inactive
br (GeneID 44505)	DRSC17789	72253	1.66e5		3171	8187	inactive
br (GeneID 44505)	DRSC18743	74172	1.43e5		2262	6548	inactive
br (GeneID 44505)	DRSC18744	43559	64080		1176	3232	inactive
CG10918 (GeneID 33123)	DRSC20472	95481	2.54e5		1557	10691	inactive
DCX-EMAP (GeneID 39617)	DRSC10012	85113			1435	2823	inactive
DCX-EMAP (GeneID 39617)	DRSC10013	46768			723	1387	inactive
CG9254 (GeneID 34773)	DRSC01969	1.31e5	48423		3504	4758	inactive
Dr (GeneID 45285)	DRSC17002	1.63e5	7.08e5	1.44e5	4134	6065	inactive
eEF2 (GeneID 35422)	DRSC03737	60967	53312		2018	5153	inactive
CG14194 (GeneID 32908)	DRSC19549	80812	2.14e5		3101	9200	inactive
CG6709 + Hez	DRSC10165	23942	64634	64454	5332	3616	inactive
CG6709 + Hez	DRSC10698	71436	54420	83785	3881	5760	inactive
CG13893 (GeneID 38074)	DRSC08363	67924	39684		2315	3050	inactive
CG2617 (GeneID 35331)	DRSC02712	75861	49002		2384	4391	inactive
CG11596 (GeneID 31158)	DRSC18540	1.03e5	68896		2176	2160	inactive
CR43105 (GeneID 12798480)	DRSC05547	1.65e5	1.53e5		3968	9592	inactive
CG13056 (GeneID 50267)	DRSC09937	1.62e5			6330	4544	inactive
ND-20 (GeneID 32565)	DRSC20164	1.26e5	1.01e5		3497	2396	inactive
l(2)gl (GeneID 33156)	DRSC00825	5.27e5	87696		3788	3788	inactive
gt (GeneID 31227)	DRSC18782	23348	1.14e5		587	5432	inactive
ppk15 (GeneID 43188)	DRSC14733	3.77e5	55505		28704	1800	inactive
plum (GeneID 43197)	DRSC16054	58812	1.08e5		1523	2864	inactive
CG13481 (GeneID 39579)	DRSC10023	83398			2921	2429	inactive
CG33627 (GeneID 3772219)	DRSC05343	1.12e5	2.01e5		3296	9996	inactive
Sr-CI (GeneID 33621)	DRSC00790	5.73e5	1.05e5		4409	4409	inactive
Glg1 (GeneID 40382)	DRSC11815	79660	1.23e5		3483	4760	inactive
Glg1 (GeneID 40382)	DRSC11816	81008	82322		2584	1907	inactive
Glg1 (GeneID 40382)	DRSC11817	99530	1.24e5		2564	3552	inactive
CG17364 (GeneID 39543)	DRSC10269	54450	43206	52487	4669	1065	inactive
CG17364 (GeneID 39543)	DRSC10270	77430	71204	7.85e5	7772	5860	inactive
Cht4 (GeneID 49815)	DRSC04603	1.01e5	64880		2652	5841	inactive
Or43b (GeneID 35743)	DRSC07486	72156	53069		1825	4600	inactive
EndoB (GeneID 37218)	DRSC07345	81607	43820		2388	4103	inactive
TpnC73F (GeneID 39916)	DRSC11307	1.06e5			2892	2580	inactive
CG32945 (GeneID 318261)	DRSC12014	2.11e5			4388		inactive
Ace (GeneID 41625)	DRSC12959	48071	1.94e5		10164	3656	inactive
Ace (GeneID 41625)	DRSC14100	95440	91575		4460	3971	inactive
Teh4 (GeneID 38501)	DRSC08457	74296	45046		1588	3296	inactive
hng3 (GeneID 38090)	DRSC08367	85824	45380		3428	3862	inactive
bab1 (GeneID 38116)	DRSC08379	1.32e5	3.58e5	74981	4147	23620	inactive
bab1 (GeneID 38116)	DRSC08709	1.27e5	44968		4843	3797	inactive
CG8726 (GeneID 35758)	DRSC07250	76076	55008		3378	2295	inactive
RabX1 (GeneID 44172)	DRSC04678	86005	70588		2487	5815	inactive

Targets listed so far whose target name starts with L or l (3):
target gene	DRSC id	firefly Hh reporter signal, replicate 1	firefly Hh reporter signal, replicate 2	firefly Hh reporter signal, replicate 3	Renilla reference signal, replicate 1	Renilla reference signal, replicate 2	call
lectin-37Da (GeneID 3346222)	DRSC03278	1.74e5	4.60e5	77197	4209	26772	inactive
LTV1 (GeneID 36146)	DRSC05951	88928	56336		3766	2345	inactive
l(2)gl (GeneID 33156)	DRSC00825	5.27e5	87696		3788	3788	inactive
